Reference: paper PMC10989010, “A panel of janus kinase inhibitors identified with anti-inflammatory effects protect mice from lethal influenza virus infection” (Antimicrobial Agents and Chemotherapy, 2024)
pIC50: −log10 of the molar value.

Assays:
MCP1 = assay: cells; format: cell-based; conditions: Homo sapiens, U-937, 72 h, read-out: IC50 MCP1
IL-8 = assay: U937 cell-based anti-inflammatory assay for influenza virus infection, IL-8 production (AlphaLISA); conditions: Homo sapiens, U-937, 72 h, read-out: IC50 IL-8, U937 cells infected with PR8 virus, 72 hours, mean of three independent experiments
Protocol: U937 cells were seeded in a 96-well culture plate at a density of 1.5 × 10^5 cells per well and incubated for 24 hours prior to virus infection. Subsequently, the cells in each well were infected with the PR8 virus at a multiplicity of infection of 0.05 and treated with serially diluted drugs or left untreated as a control. The drugs were serially diluted threefold, starting from an initial concentration of 200 µM down to 0.01 µM. […] Following this incubation, the supernatants were collected and subjected to AlphaLISA analysis to determine IL-8, IP-10, and MCP1 protein levels.
The AlphaLISA detection kits employed in this study were IL-8 (PerkinElmer AL224), IP-10 (PerkinElmer AL259), and MCP1 (PerkinElmer, AL244). U937 cell culture supernatants were measured for IL-8, IP-10, and MCP-1 protein levels using AlphaLISA assay as per the manufacturer’s recommendations. The ELISA and AlphaLISA plates were read using the Varioskan LUX multimode microplate reader (Thermo Scientiﬁc, Waltham, MA, USA).

## CCS(=O)(=O)N1CC(CC#N)(n2cc(-c3ncnc4[nH]ccc34)cn2)C1 [Baricitinib]
MCP1
  pIC50: 7.10
IL-8
  pIC50: 7.15
